Here are results for one substance from paper PMC4751364, “Mitotic Activation of a Novel Histone Deacetylase 3-Linker Histone H1.3 Protein Complex by Protein Kinase CK2*” (The Journal of Biological Chemistry, 2015).

What all share (experiment): co-IP; endogenous proteins of HeLa S3 whole cell extracts (0.5% Nonidet P-40 in PBS), unsynchronised or synchronised to S, early G2, late G2 phase or mitosis (double thymidine block, nocodazole); antibody 1-2 ug/ml overnight at 4 C, protein A/G- or L-agarose, washed three times with radioimmune precipitation assay buffer; Western blot; non-immune IgG/IgM as control
Test [1] deals with T1, HDAC10 (human (endogenous in HeLa S3)) (UniProt Q969S8).
T1 sequence: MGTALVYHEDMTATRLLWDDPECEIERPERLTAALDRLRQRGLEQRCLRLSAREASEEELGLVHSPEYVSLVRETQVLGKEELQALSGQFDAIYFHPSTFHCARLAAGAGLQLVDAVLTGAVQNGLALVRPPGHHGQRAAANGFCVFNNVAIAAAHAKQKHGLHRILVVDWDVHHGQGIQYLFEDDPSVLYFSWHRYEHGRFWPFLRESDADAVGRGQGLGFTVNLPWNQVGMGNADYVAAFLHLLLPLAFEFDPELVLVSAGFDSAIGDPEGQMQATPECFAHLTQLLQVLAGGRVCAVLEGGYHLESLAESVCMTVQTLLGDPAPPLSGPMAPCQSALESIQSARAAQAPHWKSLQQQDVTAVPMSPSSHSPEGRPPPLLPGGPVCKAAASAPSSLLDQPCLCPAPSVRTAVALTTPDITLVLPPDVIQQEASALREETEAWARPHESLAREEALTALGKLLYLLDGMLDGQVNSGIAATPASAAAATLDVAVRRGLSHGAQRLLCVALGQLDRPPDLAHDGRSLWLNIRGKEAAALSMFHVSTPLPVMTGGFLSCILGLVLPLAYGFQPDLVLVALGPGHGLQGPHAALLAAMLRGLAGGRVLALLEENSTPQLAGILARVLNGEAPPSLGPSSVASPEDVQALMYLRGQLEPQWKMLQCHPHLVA

The target in test [2] is T2, HDAC7 (human (endogenous in HeLa S3)) (UniProt Q8WUI4).
T2 sequence: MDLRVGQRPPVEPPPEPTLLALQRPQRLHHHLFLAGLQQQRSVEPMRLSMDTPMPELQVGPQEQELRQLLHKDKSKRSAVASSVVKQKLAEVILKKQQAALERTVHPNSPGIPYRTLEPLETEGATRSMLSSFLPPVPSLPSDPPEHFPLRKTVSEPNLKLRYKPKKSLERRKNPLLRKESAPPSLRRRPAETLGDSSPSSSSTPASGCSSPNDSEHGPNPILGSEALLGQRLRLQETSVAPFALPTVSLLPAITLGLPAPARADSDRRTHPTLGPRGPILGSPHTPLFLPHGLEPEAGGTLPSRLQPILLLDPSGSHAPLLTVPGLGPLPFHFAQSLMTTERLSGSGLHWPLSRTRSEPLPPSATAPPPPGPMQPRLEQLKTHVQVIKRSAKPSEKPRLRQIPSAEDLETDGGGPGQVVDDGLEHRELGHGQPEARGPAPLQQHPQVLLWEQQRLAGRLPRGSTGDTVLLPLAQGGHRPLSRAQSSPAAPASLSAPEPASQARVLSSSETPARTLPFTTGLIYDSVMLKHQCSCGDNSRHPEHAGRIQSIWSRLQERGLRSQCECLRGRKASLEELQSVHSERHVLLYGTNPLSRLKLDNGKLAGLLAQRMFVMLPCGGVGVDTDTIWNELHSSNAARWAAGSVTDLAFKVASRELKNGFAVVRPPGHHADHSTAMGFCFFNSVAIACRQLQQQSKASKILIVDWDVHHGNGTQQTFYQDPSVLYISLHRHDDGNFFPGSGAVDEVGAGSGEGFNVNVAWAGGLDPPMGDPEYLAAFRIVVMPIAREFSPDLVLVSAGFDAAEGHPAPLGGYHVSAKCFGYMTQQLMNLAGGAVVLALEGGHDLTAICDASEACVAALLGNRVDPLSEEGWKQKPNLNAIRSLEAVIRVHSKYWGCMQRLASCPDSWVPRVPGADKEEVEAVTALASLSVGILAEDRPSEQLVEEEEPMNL

In test [3] the target is T3, HDAC8 (human (endogenous in HeLa S3)) (UniProt Q9BY41).
T3 sequence: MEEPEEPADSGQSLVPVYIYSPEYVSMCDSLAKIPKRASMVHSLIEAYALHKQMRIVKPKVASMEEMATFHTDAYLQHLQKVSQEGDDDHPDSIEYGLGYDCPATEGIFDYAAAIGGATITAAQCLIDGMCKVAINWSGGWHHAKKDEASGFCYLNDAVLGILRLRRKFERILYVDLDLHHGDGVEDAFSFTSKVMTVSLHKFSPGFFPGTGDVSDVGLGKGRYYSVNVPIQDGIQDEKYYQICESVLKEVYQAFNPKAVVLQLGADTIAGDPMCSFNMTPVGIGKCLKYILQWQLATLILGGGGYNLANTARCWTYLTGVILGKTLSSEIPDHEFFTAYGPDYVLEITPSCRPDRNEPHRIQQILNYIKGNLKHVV

The target of test [4] is T4, HDAC11 (human (endogenous in HeLa S3)) (UniProt Q96DB2).
T4 sequence: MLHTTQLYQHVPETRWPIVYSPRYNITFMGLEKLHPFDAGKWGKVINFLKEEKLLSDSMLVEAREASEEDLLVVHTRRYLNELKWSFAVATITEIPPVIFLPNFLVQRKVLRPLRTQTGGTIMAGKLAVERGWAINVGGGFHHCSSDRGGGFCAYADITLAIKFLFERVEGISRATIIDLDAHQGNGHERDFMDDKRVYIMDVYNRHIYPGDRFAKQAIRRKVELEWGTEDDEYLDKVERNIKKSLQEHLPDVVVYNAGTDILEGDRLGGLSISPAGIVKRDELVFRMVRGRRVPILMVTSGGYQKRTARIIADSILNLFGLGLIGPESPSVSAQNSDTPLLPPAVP

Results are given in words; binding and its absence hold for the method and conditions named. In cells and extracts the contact can be indirect. For some of these results: Binding can be weak; no strength is given.

For “linker histone H1 (human (endogenous in HeLa S3))”, the binding entry is on record as “no binding” in test [1], “no binding” in test [2], “binds” in test [3] and “no binding” in test [4].
